The text below walks through data of PubChem BioAssay AID2685 (National Center for Advancing Translational Sciences (NCATS), 2010).

A short description of the experiment: qHTS Assay for Lipid Storage Modulators in Drosophila S3 Cells.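 On cell number change: cells counted by Cell Tracker Red CMTPX staining in the red channel.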 The settings on record: BODIPY lipid droplet fluorescence, 18-24 h; for cell number change: measured here: cell count max response, cells fed with added oleic acid. A digest of the protocol:
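Drosophila S3 cells got compounds at several concentrations plus oleic acid (400 uM solution). Laser-scanning cytometry with 488 nm excitation read lipid droplets at 500-530 nm and cells at 575-640 nm. Percent activity was relative to 20 uM Triacsin C.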
In general terms: Quantitative high-throughput screening tests each substance at several concentrations.

Where [1] appears, read: measured here: lipid fluorescence (Fed channel) AC50, cells fed with added oleic acid.
The mark [2] stands for this setting: measured here: cell number channel AC50, cells fed with added oleic acid.

This is one part of the list. These are further read-outs of the screen, such as a control signal, another cell line or another target. No call is given for them. Compounds called inactive in the main read-out are mostly missing here. The note in brackets gives the kind of curve behind each potency; many fits are weak.

For the compound `O=C(c1ccco1)N1CCN(C(=O)c2ccc(CS(=O)c3ccc(F)cc3)o2)CC1` (configuration not stated), the cell number change was -2.42%. The AC50 under setting [1] is 16.4 µM [falling, single point].
With `COc1ccc(/C=C/C(=O)NCCSCc2ccco2)cc1`, the cell number change stood at 7.65%. In addition, under setting [1], the AC50 is 29.1 µM [rising, single point].
Turning to `COCCCn1c(-c2ccccc2Cl)n[nH]c1=S`, the cell number change was determined as 13.3%.
`Cc1nc2c(ccc3c([N+](=O)[O-])cccc32)c(C)c1C`: the AC50 under setting [1] was 0.231 µM [rising, full curve].
Take `CC1(C2CC2)NC(=O)N(CC(=O)N2CCN(c3ccc(F)cc3)CC2)C1=O` (configuration not stated): the half-maximal activity concentration (AC50) under setting [1] was 18.4 µM [falling, partial curve, poor fit].
For the compound `Cc1ccc(C(=O)Nc2ccc(Cl)cn2)cc1`, the cell number change amounted to 3.97%. The AC50 under setting [1] is 29.1 µM [rising, single point].
For `CC(C)CNC(=O)COC(=O)c1cc(Cl)cc(Cl)c1N`, the cell number change came out at 0.799%.
Take `COc1ccc(S(=O)(=O)N2CCCC(C(=O)Nc3ccc4c(c3)OCCO4)C2)cc1` (configuration not stated): the cell number change is -29.9%. Under setting [1], the AC50 was 16.4 µM [falling, single point].
As for `c1ccc(-c2nnnn2CCOCCn2nnnc2-c2ccccc2)cc1`, the cell number change was -1.25%.
As to `Cc1ccc(/C=C/C(=O)O)cc1S(=O)(=O)Nc1ccc(C(=O)O)cc1`, the cell number change was -31.9%. The AC50 under setting [2] is 0.461 µM [falling, full curve, poor fit]. In addition, the AC50 under setting [1] was 20.6 µM [falling, single point].
`COC(=O)C1=C(COc2ccc(F)cc2)NC(=O)NC1c1ccc(C)cc1C` (configuration not stated): the cell number change is -18.2%. Further, the AC50 under setting [1] is 32.6 µM [falling, partial curve].
`COCCCn1c(SCC(=O)Nc2ccc(NC(C)=O)cc2)nc2sc3c(c2c1=O)CCC3`: the cell number change is 16.2%. The concentration at half-maximal activity (AC50) under setting [1] was 6.51 µM [falling, single point].
Consider `c1ccc(-n2nnnc2Sc2ncnc3sc4c(c23)CCCC4)cc1`, for which the cell number change worked out at 133%. Besides, the AC50 under setting [2] was 29.1 µM [rising, partial curve, poor fit]. For the same compound, under setting [1], the AC50 was 8.2 µM [rising, partial curve, poor fit].
As to `CN1CCN(C(=S)c2ccc(OCC(=O)Nc3cccc(C(F)(F)F)c3)cc2)CC1`, the cell number change is -39.1%. In addition, the AC50 under setting [2] was 16.4 µM [falling, single point]. The concentration at half-maximal activity (AC50) under setting [1] was 20.6 µM [falling, partial curve].
For the compound `O=C(Nc1ccc2c(c1)N(S(=O)(=O)c1cccs1)CCC2)c1c(F)cccc1F`, the half-maximal activity concentration (AC50) under setting [1] was 2.59 µM [rising, partial curve, poor fit].
Consider `O=C(Nc1ccccc1)c1nsnc1C(=O)Nc1ccccc1`, for which the cell number change amounted to 24.7%. Moreover, the AC50 under setting [1] was 0.116 µM [falling, full curve, poor fit].
On to `COc1ccc(CCC(=O)OCC(=O)Nc2c(C)nn(-c3ccccc3)c2C)cc1`, for which the cell number change turned out to be 17.3%.
Consider `CC(=O)c1cccc(NC(=O)N2CCOCC2)c1`, for which the cell number change turned out to be 17.3%. In addition, the AC50 under setting [1] was 0.00411 µM [falling, full curve, poor fit].
On to `CCOC(=O)c1nnn(-c2nonc2N)c1CSc1ccc(C)cc1`, for which the cell number change was -1.19%. For the same compound, the concentration at half-maximal activity (AC50) under setting [2] is 0.103 µM [falling, partial curve, poor fit].
Turning to `COc1cccc(NC(=O)Nc2ccc3c(c2)OCO3)c1`, the cell number change turned out to be 1.59%.
Turning to `COc1ccc(S(=O)(=O)Nc2ccc(-n3cnnn3)cc2)cc1Br`, the cell number change is -3.21%.
Consider `O=C(N/N=C/c1coc2ccccc2c1=O)c1cn(-c2ccccc2)nc1-c1ccc(F)cc1`, for which the cell number change came to 12.9%. Moreover, under setting [2], the half-maximal activity concentration (AC50) was 0.146 µM [falling, partial curve, poor fit]. Moreover, the AC50 under setting [1] was 0.517 µM [falling, partial curve].
Regarding `Cc1nc(SCC(=O)Nc2ccc(CN3CCCC3)cc2)c2c(C)c(C)sc2n1`, the cell number change was 14.1%.
Regarding `CC(C)CCOc1ccc(C2(C)NC(=O)NC2=O)cc1` (configuration not stated), the cell number change turned out to be 4.99%. Moreover, under setting [2], the concentration at half-maximal activity (AC50) was 0.00651 µM [rising, full curve, poor fit].
Consider `COC(=O)[C@]1(C)N[C@H](c2ccc(-c3ccccc3)cc2)[C@@H]2C(=O)N(C)C(=O)[C@@H]21`, for which the cell number change stood at 0.99%.
For `CCc1nc2c(s1)CCc1onc(-c3ccc(Cl)cc3)c1-2`, the cell number change came out at 41.1%. In addition, under setting [2], the half-maximal activity concentration (AC50) was 18.4 µM [rising, single point]. Besides, the AC50 under setting [1] is 25.9 µM [rising, partial curve].
Regarding `NC(=O)Cn1cc(/C=N\NS(=O)(=O)c2ccc(F)cc2)c2ccccc21`, the cell number change was -20.2%. Also, the half-maximal activity concentration (AC50) under setting [1] was 6.51 µM [rising, single point].
With `COc1ccc(-c2nnc(SCC(=O)Nc3cc(F)ccc3C)o2)cc1`, the cell number change was -29.9%. The AC50 under setting [1] was 0.0116 µM [rising, full curve, poor fit].
With `COc1cc(-c2noc(C3CCCN(C(=O)c4c(F)cccc4F)C3)n2)cc(OC)c1OC` (configuration not stated), the cell number change was -36.5%. Besides, the half-maximal activity concentration (AC50) under setting [2] was 25.9 µM [falling, single point]. The AC50 under setting [1] is 5.8 µM [falling, single point].
With `CCN(CC)CCN(C(=O)/C=C/c1cccs1)c1nc2ccc(F)cc2s1`, the cell number change is 16.5%. The AC50 under setting [1] was 6.51 µM [rising, single point].
In the case of `COc1ccccc1C(=O)NCC(=O)OCC(=O)Nc1ccc2[nH]c(=O)[nH]c2c1`, the cell number change was -20.9%. Moreover, the AC50 under setting [2] was 0.146 µM [falling, full curve, poor fit].
`Cc1ccc(NC(=O)c2nc[nH]c2C(=O)N2CCN(C(=O)OC(C)(C)C)CC2)cc1`: the cell number change is -34.6%. The concentration at half-maximal activity (AC50) under setting [2] is 4.61 µM [falling, single point].
Consider `CCC(C)c1ccc(OCc2ccc(C(=O)O)o2)cc1` (configuration not stated), for which the cell number change was 10.6%. Also, the AC50 under setting [2] was 2.06 µM [rising, single point]. Further, the concentration at half-maximal activity (AC50) under setting [1] was 3.66 µM [rising, full curve].
With `Cc1ccc(P(C)(=O)c2ccc(C)cc2)cc1`, the cell number change is 31.4%. Moreover, under setting [2], the AC50 was 29.1 µM [rising, single point].
Take `Cc1occc1-c1nnc(SCC(=O)N2CCOCC2)n1Cc1ccco1`: the cell number change was -14.2%.
The same measure, in the same setting: the figure for `CCc1nc(NCCO)c(C#N)c2c1CCCC2` is 24.2%; for `CCOC(=O)C1CCCN(C(=O)c2cc(=O)c3ccccc3o2)C1` (configuration not stated) it is -148%.
With `COc1ccc(-c2cc(-c3c(O)c(OC)c4occc4c3OC)[nH]n2)cc1`, the cell number change was determined as 23.2%.
In the case of `N#CCc1c(C#N)c(N)nc(N2CCN(Cc3ccc4c(c3)OCO4)CC2)c1C#N`, the cell number change stood at 12.9%. Also, under setting [2], the concentration at half-maximal activity (AC50) is 0.0291 µM [rising, full curve, poor fit].
As for `Nc1cc(=O)[nH]c(SC/C=C/c2ccccc2)n1`, the cell number change was -3.16%. Also, under setting [1], the AC50 is 0.00461 µM [falling, full curve, poor fit].
With `COc1cccc(Nc2cc(C)nc3nc(C)nn23)c1`, the cell number change was -1.34%. For the same compound, the AC50 under setting [1] was 3.66 µM [falling, single point].
For `CC(=O)c1ccc(OCCCC(=O)OCC(=O)Nc2ccc3[nH]c(=O)[nH]c3c2)cc1`, the cell number change amounted to 5.09%. For the same compound, under setting [1], the AC50 was 0.731 µM [falling, single point].
As for `COc1cccc2c1Oc1ncccc1N(C(=O)CCC(=O)NCc1ccc(F)cc1)C2`, the cell number change was -19.2%. Further, the AC50 under setting [1] was 16.4 µM [rising, partial curve, poor fit].
Turning to `COc1ccc2c(c1)c1nnc(SCC(=O)N3CCCCC3C)nc1n2C` (configuration not stated), the concentration at half-maximal activity (AC50) under setting [2] was 0.366 µM [rising, full curve, poor fit].
Turning to `O=C(CSc1nnnn1C1CCCCC1)N1CCCC1`, the cell number change is 4.98%.
As for `COc1cc(CC(=O)OCC(=O)Nc2sccc2C(N)=O)cc(OC)c1OC`, the cell number change came out at 5.13%.
With `S=c1[nH]ncn1-c1ccccn1`, the concentration at half-maximal activity (AC50) runs as follows: under setting [2], 6.51 µM [falling, single point]; under setting [1], 3.66 µM [falling, full curve].
`CC(C)[C@H](NC(N)=O)C(=O)Nc1ccc(OCc2ccccc2)cc1`: the cell number change was -6.96%. Also, the AC50 under setting [2] was 0.82 µM [falling, single point].
As for `c1cncc(-c2nnc3n2C2(CCCCC2)Cc2ccccc2-3)c1`, the cell number change is -21.1%. Besides, the AC50 under setting [2] was 6.51 µM [rising, single point]. For the same compound, the AC50 under setting [1] is 6.51 µM [rising, single point].
For the compound `O=C(c1ccc(OCC2CCCO2)cc1)N1CCN(S(=O)(=O)c2cccc(F)c2)CC1` (configuration not stated), the cell number change was 146%. Moreover, the half-maximal activity concentration (AC50) under setting [2] was 29.1 µM [rising, single point]. Also, the concentration at half-maximal activity (AC50) under setting [1] was 3.26 µM [rising, partial curve, poor fit].
Regarding `Cc1ccc2nc(Nc3nc(CSc4nnc(C)s4)cc(=O)[nH]3)nc(C)c2c1`, the cell number change is -27.1%. Further, the half-maximal activity concentration (AC50) under setting [1] is 0.00517 µM [falling, full curve, poor fit].
`CCOC(=O)c1[nH]c(=O)[nH]c1CSc1ccccn1`: the cell number change was 21.7%. Further, under setting [1], the AC50 is 29.1 µM [rising, single point].
For the compound `CCOc1ccc(C2N(c3cc(Cl)ccc3OC)C(=O)C3CCCN32)cc1OC` (configuration not stated), the cell number change was 38.5%. Also, the AC50 under setting [2] is 7.31 µM [rising, single point]. Under setting [1], the concentration at half-maximal activity (AC50) was 1.16 µM [falling, single point].
`CC(=O)C[C@@H](O)CC(=O)[C@H]1OC(=O)CCCCCCc2ccccc21`: the cell number change came out at 20.4%.
`CN(C)S(=O)(=O)c1ccc2oc(SCC(=O)c3c(N)n(C4CC4)c(=O)[nH]c3=O)nc2c1`: the cell number change is -11.9%.
Turning to `COc1ccc(CNCc2cc3c(cc2[N+](=O)[O-])OCO3)cc1`, under setting [1], the half-maximal activity concentration (AC50) was 0.58 µM [falling, single point].
As to `O=[N+]([O-])c1cccc(/C=C/c2ccncc2)c1`, the half-maximal activity concentration (AC50) reads like this: under setting [2], 2.06 µM [rising, single point]; under setting [1], 9.2 µM [rising, partial curve].
Consider `CC(C)(C)c1ccc(C(=O)Nc2ccccc2NC(=O)c2ccco2)cc1`, for which the cell number change was -16.5%.
The same measure, in the same setting: the figure for `COCCNS(=O)(=O)c1ccc(-c2ccc(S(=O)(=O)NCCOC)cc2)cc1` is -7.3%; for `CCC1Oc2ccc(C)cc2N(Cc2cccc(C)c2)C1=O` (configuration not stated) it is -5.08%; for `O=C(CSc1nnc2ccccn12)N1CCc2ccccc2C1` it is -16.7%.
As to `CCOc1ccc(-n2c(SCc3ccc(C#N)cc3)nnc2-c2cccnc2)cc1`, the cell number change stood at 4.02%. For the same compound, the half-maximal activity concentration (AC50) under setting [1] is 29.1 µM [rising, single point].
With `CC(=O)Nc1ccc(Nc2nc(C)c([N+](=O)[O-])c(Nc3ccc(NC(C)=O)cc3)n2)cc1`, the cell number change came to 20.6%. The AC50 under setting [2] is 1.46 µM [rising, partial curve, poor fit]. Moreover, the half-maximal activity concentration (AC50) under setting [1] is 1.84 µM [rising, full curve].

For orientation: AC50 means the concentration at which the activity in the assay is half-maximal. High values mean weaker potency, low ones greater potency.
